Data as given in PubChem BioAssay AID1224826 (NIAID, 2016)
The deposit covers about 17,000 reagents; below is an unselected part. About 1,110 of all reagents (6.6%) count as active. 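Active means lowered or raised reporter signal; replicate intensities are raw and not normalised per plate.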 A number with no mark means an inactive call. Reagents against one gene are numbered here. Some reagents were tested in more than one well and are listed for each. Further read-outs or replicates are left out here.

Test: 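Knock-downs that raise or lower Tnf reporter signal after endotoxin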 (primary screen)
Cells: RAW264.7 G9 macrophages from mouse bearing reporters for p65 (GFP) and the Tnf promoter (mCherry)
Reagents: siRNA pool against mouse genes, 100 nM
Timing: 16 h of LPS stimulation, after 2 days of siRNA transfection
Challenge: bacterial lipopolysaccharide (Salmonella minnesota R595), 10 ng/ml
Measured: 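Nuclear mCherry signal of the Tnf promoter reporter measured by imaging after background removal, scaled to each plate median and turned into robust z-scores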
Scale: Tnf reporter robust z-score: higher = stronger Tnf promoter reporter signal after LPS
Call rule: 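a well counts as active at a score of -1.3 or below (Tlr4 knock-down control median) or above 3 (raised signal); controls and wells holding fewer than 50 cells are excluded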
Calls: active = Tnf reporter clearly lowered or raised; inactive = no clear change in Tnf reporter

| gene | pool no. | Tnf reporter robust z-score | fewer than 50 cells in well |
| --- | --- | --- | --- |
| Elp3 | 1 | -0.45 | enough cells in well |
| Hoxd13 | 1 | 1.22 | enough cells in well |
| Cntnap4 | 1 | -0.86 | enough cells in well |
| Nkain4 | 1 | -0.3 | enough cells in well |
| Rabif | 1 | 1.32 | enough cells in well |
| Sema6d | 1 | -1.2 | enough cells in well |
| Arhgap28 | 1 | 1.48 | enough cells in well |
| Fgfbp3 | 1 | 0.27 | enough cells in well |
| Ccdc38 | 1 | – | fewer than 50 cells per well; well left out of calls |
| Reg3d | 1 | -1.23 | enough cells in well |
| Cep164 | 1 | -0.73 | enough cells in well |
| Cep164 | 2 | -0.2 | enough cells in well |
| Rpl36al | 1 | -0.66 | enough cells in well |
| Nradd | 1 | 1.46 | enough cells in well |
| Apol10a | 1 | -0.32 | enough cells in well |
| Lamp5 | 1 | -0.53 | enough cells in well |
| Samd12 | 1 | -1 | enough cells in well |
| Eef1a1 | 1 | -1.1 | enough cells in well |
| Necab1 | 1 | 0.42 | enough cells in well |
| Mid1ip1 | 1 | 0.11 | enough cells in well |
| Ifi204 | 1 | -1.7 (active) | enough cells in well |
| Gpr150 | 1 | -0.66 | enough cells in well |
| Tlr8 | 1 | -0.2 | enough cells in well |
| Pgm3 | 1 | 0.96 | enough cells in well |
| Stk40 | 1 | 2.24 | enough cells in well |
| Stk40 | 1 | – | fewer than 50 cells per well; well left out of calls |
| Sergef | 1 | -0.6 | enough cells in well |
| Clu | 1 | 0.15 | enough cells in well |
| Cep290 | 1 | -0.07 | enough cells in well |
| Ggh | 1 | 0.18 | enough cells in well |
| Bivm | 1 | 1.15 | enough cells in well |
| Myh4 | 1 | -0.29 | enough cells in well |

Part of the list above, set out differently:
Eef1a1
- Tnf reporter robust z-score: -1.1
- fewer than 50 cells in well: enough cells in well

Necab1
- Tnf reporter robust z-score: 0.42
- fewer than 50 cells in well: enough cells in well

Mid1ip1
- Tnf reporter robust z-score: 0.11
- fewer than 50 cells in well: enough cells in well

Ifi204
- Tnf reporter robust z-score: -1.7 (active)
- fewer than 50 cells in well: enough cells in well

Gpr150
- Tnf reporter robust z-score: -0.66
- fewer than 50 cells in well: enough cells in well

Tlr8
- Tnf reporter robust z-score: -0.2
- fewer than 50 cells in well: enough cells in well

Pgm3
- Tnf reporter robust z-score: 0.96
- fewer than 50 cells in well: enough cells in well

Additional records:
| gene | pool no. | Tnf reporter robust z-score | fewer than 50 cells in well |
| --- | --- | --- | --- |
| Oprl1 | 1 | -0.43 | enough cells in well |
| Hsd17b7 | 1 | -0.41 | enough cells in well |
| Hoxc13 | 1 | -0.04 | enough cells in well |
| Nr5a2 | 1 | 0.66 | enough cells in well |
| Syt3 | 1 | 0.28 | enough cells in well |
| Actbl2 | 1 | – | fewer than 50 cells per well; well left out of calls |
| Zmym6 | 1 | -0.3 | enough cells in well |
| Vwa3a | 1 | 0 | enough cells in well |
| Ethe1 | 1 | -0.09 | enough cells in well |
| Mpl | 1 | -0.41 | enough cells in well |
| Vcpip1 | 1 | -0.57 | enough cells in well |
| Eps8l3 | 1 | 1.23 | enough cells in well |
| Stat2 | 1 | -0.8 | enough cells in well |
| Adgrf1 | 1 | 0.91 | enough cells in well |
| LOC381853 | 1 | 0.46 | enough cells in well |
| Tyk2 | 1 | 1.31 | enough cells in well |
| Fgf12 | 1 | -0.01 | enough cells in well |
| Myoz1 | 1 | -1.07 | enough cells in well |
| Mppe1 | 1 | 0.44 | enough cells in well |
| Kctd10 | 1 | -0.43 | enough cells in well |
| Skint7 | 1 | -1.54 (active) | enough cells in well |
| Smurf1 | 1 | – | fewer than 50 cells per well; well left out of calls |
| Prelid3b | 1 | – | fewer than 50 cells per well; well left out of calls |
| Ccnl1 | 1 | -0.44 | enough cells in well |
| Acsm5 | 1 | 0.51 | enough cells in well |
| Blm | 1 | 0.68 | enough cells in well |
